From PubChem BioAssay AID493014 (National Center for Advancing Translational Sciences (NCATS), 2011)
The list shows a part of the results. The main result of the screen is listed elsewhere. These columns were measured beside it and carry no call. The list favours compounds with an active or inconclusive main result. Words in brackets tell the shape of the fitted curve; partial curves, single points and poor fits give uncertain potencies.

Test: qHTS Assay to Find Inhibitors of Chronic Active B-Cell Receptor Signaling
Details: ABC-DLBCL IkBa-CBG/CBR reporter, luminescence ratio (green luciferase fused to IkBa over red control in TMD8 lymphoma cells), 4 h
Method in brief: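 TMD8 ABC-DLBCL cells carrying doxycycline-inducible green luciferase fused to IkappaBalpha plus unfused red luciferase were exposed to compounds (up to 46 uM) for 4 hrs at 37C. Activity came from the overlap-corrected green/red luminescence ratio.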

[1] = measured here: CBR red luminescence, cell number
[2] = measured here: IkBa-CBG green luminescence

Row | Structure (SMILES) | AC50 [1] | AC50 [2]
1 | Cc1ccc(C)c(NC(=O)c2cc(-c3ccccc3O)n[nH]2)c1 | 3.16 µM [falling, full curve, poor fit] | –
2 | CC1(C)O[C@@H]2CC3C4C[C@H](F)C5=CC(=O)C=CC5(C)C4C(O)CC3(C)[C@]2(C(=O)CO)O1 (some centres not stated) | 6.51 µM [rising, single point] | –
3 | Cc1ccc2[nH]c(O)c(N=NC(=O)c3ccc(NS(=O)(=O)c4cccs4)cc3)c2c1 | 35.5 µM [falling, single point] | 6.31 µM [falling, single point]
4 | CCC(C)NC(=O)c1ccc2nc(-c3ccc(OC)c(OC)c3)c(-c3ccc(OC)c(OC)c3)nc2c1 (configuration not stated) | 35.5 µM [rising, single point] | –
5 | O=C(Nc1nccs1)c1cc([N+](=O)[O-])ccc1Cl | 4.47 µM [rising, single point] | –
6 | O=c1oc2ccccc2n1CCn1c2ccccc2c2nc3ccccc3nc21 | 2.59 µM [rising, single point] | –
7 | COC(=O)c1ccc(COC(=O)CCc2nc(-c3ccccc3)c(-c3ccccc3)o2)cc1 | 0.184 µM [rising, full curve, poor fit] | –
8 | COc1ccc(-n2c(/C=C/c3cc(OC)c(OC)cc3OC)nc3cc4ccccc4cc3c2=O)cc1Cl | 2.51 µM [falling, partial curve, poor fit] | –
9 | CN(C(=O)c1ccc(NC(=O)Cc2cccc(NC(=O)C3CCN(C(=O)c4ccccc4)CC3)c2)cc1)C1CCCC1 | 0.366 µM [rising, partial curve, poor fit] | –
10 | O=S1(=O)CCC(NC(=S)N2CCCCCC2)C1 (configuration not stated) | 23.1 µM [falling, single point] | –
11 | NC(=S)N/N=C/c1ccccc1OCc1cccc(Cl)c1 | – | 31.6 µM [falling, single point]
12 | Cc1cc(N=CC2=C(O)CC(C)(C)CC2=O)no1 | 6.31 µM [rising, full curve] | –
13 | CN1CCOc2ccc(S(=O)(=O)N3CCN(S(=O)(=O)c4c(F)cccc4F)CC3)cc21 | 6.51 µM [rising, partial curve] | –
14 | CCC/C=N/NC(=O)c1[nH]c2c([N+](=O)[O-])cccc2c1C | – | 25.9 µM [falling, partial curve, poor fit]
15 | Cc1ccc2c(c1)Sc1c(ccc3ccccc13)N2 | 0.112 µM [falling, full curve, poor fit] | –
16 | CN1CC(c2ccc(C#N)cc2)C2(COc3ccccc3C2=O)C12C(=O)Nc1ccccc12 (configuration not stated) | 7.94 µM [rising, partial curve, poor fit] | –
17 | O=C(O)CCC(=O)OCCc1cc2ccccc2c(=O)o1 | 29.1 µM [falling, single point] | –
18 | COc1ccc(-c2oc(NC(=O)CSc3ncn[nH]3)c(C#N)c2-c2ccc(OC)cc2)cc1 | 35.5 µM [falling, single point] | –
19 | COC(=O)C1=NN(c2ccccc2OC)C2C(=O)N(c3ccccc3OC)C(=O)C12 (configuration not stated) | 29.1 µM [rising, single point] | –
20 | CC1(C)CC(=O)C(C=Nc2cccc(/N=C/C3=C(O)CC(C)(C)CC3=O)n2)=C(O)C1 | 3.66 µM [falling, single point] | –

Three structures out of the list, sorted by length of the SMILES, low to high.
Row | Structure (SMILES) | AC50 [1] | AC50 [2]
10 | O=S1(=O)CCC(NC(=S)N2CCCCCC2)C1 (configuration not stated) | 23.1 µM [falling, single point] | –
15 | Cc1ccc2c(c1)Sc1c(ccc3ccccc13)N2 | 0.112 µM [falling, full curve, poor fit] | –
5 | O=C(Nc1nccs1)c1cc([N+](=O)[O-])ccc1Cl | 4.47 µM [rising, single point] | –

Next records follow:

Row | Structure (SMILES) | AC50 [1] | AC50 [2]
21 | CNC(=O)CSc1nc2sccc2c(=O)n1-c1ccccc1 | 2 µM [rising, full curve] | –
22 | O=C(Nc1cc(-c2ccccc2)nn1-c1ccccc1)c1ccccc1F | 25.9 µM [falling, single point] | –
23 | COc1ccc(OCC#CCN2CC(C)OC(C)C2)cc1 (configuration not stated) | 11.2 µM [rising, single point] | –
24 | O=C1NC(c2ccccc2)=C(c2ccc3ccccc3n2)C(c2ccc(F)cc2)N1 (configuration not stated) | 23.1 µM [falling, single point] | –
25 | COc1ccc(/C=N/NC(=O)c2ccoc2C)cc1OC | 9.2 µM [falling, partial curve] | –
26 | S=C(Nc1ccc(Cl)cc1)c1nc2ccccc2[nH]1 | 16.4 µM [falling, single point] | 9.2 µM [rising, partial curve, poor fit]
27 | Cc1ccc(C(=O)Nc2cccc(NC(=O)CN3CCCCC3)c2)cc1 | 7.94 µM [falling, single point] | –
28 | Cc1nc2cc(NCc3cccs3)ccc2n1C | 35.5 µM [falling, single point] | –
29 | Cc1c(C(C)(C(=O)O)c2c(C)n(C)c3ccccc23)c2ccccc2n1C | 6.31 µM [rising, partial curve, poor fit] | –
30 | C=C(C)COc1ccc(-c2nc(N)ncc2Oc2ccccc2OCC)c(O)c1 | 29.1 µM [rising, single point] | 29.1 µM [falling, single point]
31 | CCCCCC(=O)NC(=S)Nc1ccc(N2CCCCC2)c(Cl)c1 | 2.24 µM [rising, full curve, poor fit] | –
32 | C=CCN1C(=O)C(Cc2ccc(OC)cc2)SC1=Nc1ccc(C(=O)O)cc1 (configuration not stated) | 5.8 µM [falling, partial curve, poor fit] | –
33 | COc1ccccc1NC(=O)C(=O)N/N=C(\C)CC(=O)Nc1ccccn1 | 5.62 µM [falling, partial curve] | –
34 | Cc1ccc(C2CC(=O)Nc3c2ccc2ccccc32)cc1[N+](=O)[O-] (configuration not stated) | 25.9 µM [falling, partial curve, poor fit] | –
35 | Cc1ccc(C)c(N2CCN(C(=O)c3ccc4c(c3)c(C)c(C)n4C)CC2)c1 | 2.82 µM [falling, single point] | –
36 | Cn1nccc1NC(=O)NC(=O)c1c(Cl)cccc1Cl | 7.94 µM [falling, partial curve, poor fit] | –
37 | COc1ccc2sc(NC(=O)c3ccco3)nc2c1 | 3.16 µM [falling, full curve] | –
38 | O=C(O)c1cc2c(s1)-c1ccccc1OC2 | 7.08 µM [falling, partial curve] | –
39 | COc1ccc(-n2nnnc2CNC(=O)c2ccc(S(=O)(=O)N3CCOCC3)cc2)cc1 | 2.59 µM [rising, partial curve, poor fit] | –
